At least one compound was matched to its structure with a doubt left.
Assay: cocaine-related behaviors
Conditions: in vivo
Procedure: Benzodiazepines affect cocaine and methamphetamine-related behaviors differently—The inventors' laboratory has long been interested in the role for benzodiazepines in drug addiction.
Adult female Wistar rats were trained to discriminate 1 mg/kg methamphetamine (IP) from saline using food pellet reinforcement according to previously published procedures (Mantsch and Goeders, 1999, 1998). Pretreatment with alprazolam (4 mg/kg, IP) enhanced the methamphetamine discriminative stimulus at doses of 0.125 and 0.25 mg/kg methamphetamine. […] These observations have been confirmed using a conditioned place preference model as well, evidencing that benzodiazepines differentially modulate the rewarding and reinforcing properties of methamphetamine. […] Thus, this is an extraordinarily consistent pattern across three very different models of drug-related behaviors.

With `CNC1=Nc2ccc(Cl)cc2C(c2ccccc2)=[N+]([O-])C1` [chlordiazepoxide] the cocaine-related behaviors was “decrease”.

Reference: US10702537B2, “Devices and methods of treating methamphetamine addiction and medical and behavioral consequences of methamphetamine use and of HIV infection” (Board of Supervisors of Louisiana State University and …, priority 2015, dated 2020)
